# Source: the supplement of paper PMC8728848
# This is one part of the list.
# B1: GS7807F-bth-514-18-514 (Bacteroides thetaiotaomicron) (protein)
# chain: AGSCTGNFEEYNTNQFQIHEADPSTLMKSMIETIVNIQQNDSQMMDQMVGQLGGYLTCANVWSGTNFGTFNQSDAWNAGPWNTNFEKIYGNFFQIQEATNESGHYYAFARMIRAITMLRVADCYGPMPYSQVKKGNFYVAYDTEEQVYKNIMEDFASAANVLYNYYKDTNGNAPLASNDPVFSGNYANWARLANSMRLRVAIRISTAYPEMAKENAEAAASHEAGLIEANNDNAMMDCGSQTNPYQLAAVSWGDLRVNANIVDYMNGYGDPRMSKYFNHSTFTGHTQEYVGMRSGEDGFAKSDVAGYSIPAITGTSKLLVFCAAETAFLRAEGKLKNWSVGNKSAKEYYEEGIKLSMEQYGTTMPDNYLTNTEKPTVSHNNDPRGHAYTISNTVAVAWNDNNEEENLQRIITQKWIANYPLGLEAWAEYRRTGYPELYPCIDNLSPSGVDSKRGMRRLRFPYTEVQNNHSNYQQGVSYLKNGGPDNEATDLSWGKTN
# How the values were obtained:
# Assay in all cases: glycan array binding signal (z-score within array); higher = stronger binding
# Conditions in all cases: glycan notation: IUPAC condensed, linker removed
# [1] = target: Neu5Ac(a2-6)Gal(b1-4)GlcNAc(b1-2)Man(a1-3)[Man(a1-6)]Man(b1-4)GlcNAc(b1-4)GlcNAc
# Procedure, shortened: (§1)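 The binding signal is a Z-score computed within each array. Data were drawn from 3228 arrays in the Consortium for Functional Glycomics database, restricted to those with a known protein sequence. Scores were averaged over arrays of the same protein sequence at different concentrations or buffers, and over linkers, and negative values can be taken as non-binding.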
# [2] = target: Neu5Ac(a2-6)Gal(b1-4)GlcNAc(b1-2)Man(a1-3)[Neu5Ac(a2-3)Gal(b1-4)GlcNAc(b1-2)Man(a1-6)]Man(b1-4)GlcNAc(b1-4)GlcNAc
# Procedure, shortened: as §1
# [3] = target: Neu5Ac(a2-6)Gal(b1-4)GlcNAc(b1-2)Man(a1-3)[Neu5Ac(a2-6)Gal(b1-4)GlcNAc(b1-2)Man(a1-6)]Man(b1-4)GlcNAc(b1-4)GlcNAc
# Procedure, shortened: as §1
# [4] = target: Neu5Ac(a2-6)Gal(b1-4)GlcNAc(b1-2)Man(a1-3)[Neu5Ac(a2-6)Gal(b1-4)GlcNAc(b1-2)Man(a1-6)]Man(b1-4)GlcNAc(b1-4)[Fuc(a1-6)]GlcNAc
# Procedure, shortened: as §1
# [5] = target: Neu5Ac(a2-6)Gal(b1-4)GlcNAc(b1-2)Man(a1-6)Man(b1-4)GlcNAc(b1-4)GlcNAc
# Procedure, shortened: as §1
# [6] = target: Neu5Ac(a2-6)Gal(b1-4)GlcNAc(b1-2)Man(a1-6)[Gal(b1-4)GlcNAc(b1-2)Man(a1-3)]Man(b1-4)GlcNAc(b1-4)GlcNAc
# Procedure, shortened: as §1
# [7] = target: Neu5Ac(a2-6)Gal(b1-4)GlcNAc(b1-2)Man(a1-6)[GlcNAc(b1-2)Man(a1-3)]Man(b1-4)GlcNAc(b1-4)GlcNAc
# Procedure, shortened: as §1
# [8] = target: Neu5Ac(a2-6)Gal(b1-4)GlcNAc(b1-2)Man(a1-6)[Man(a1-3)]Man(b1-4)GlcNAc(b1-4)GlcNAc
# Procedure, shortened: as §1
# [9] = target: Neu5Ac(a2-6)Gal(b1-4)GlcNAc(b1-2)[Neu5Ac(a2-6)Gal(b1-4)GlcNAc(b1-4)]Man(a1-3)[GlcNAc(b1-4)][Neu5Ac(a2-6)Gal(b1-4)GlcNAc(b1-2)[Neu5Ac(a2-6)Gal(b1-4)GlcNAc(b1-6)]Man(a1-6)]Man(b1-4)GlcNAc(b1-4)GlcNAc
# Procedure, shortened: as §1
# [10] = target: Neu5Ac(a2-6)Gal(b1-4)GlcNAc(b1-2)[Neu5Ac(a2-6)Gal(b1-4)GlcNAc(b1-4)]Man(a1-3)[GlcNAc(b1-4)][Neu5Ac(a2-6)Gal(b1-4)GlcNAc(b1-4)Man(a1-6)]Man(b1-4)GlcNAc(b1-4)GlcNAc
# Procedure, shortened: as §1
# [11] = target: Neu5Ac(a2-6)Gal(b1-4)GlcNAc(b1-2)[Neu5Ac(a2-6)Gal(b1-4)GlcNAc(b1-6)]Man(a1-6)[Neu5Ac(a2-6)Gal(b1-4)GlcNAc(b1-2)Man(a1-3)][GlcNAc(b1-4)]Man(b1-4)GlcNAc(b1-4)GlcNAc
# Procedure, shortened: as §1
# [12] = target: Neu5Ac(a2-6)Gal(b1-4)GlcNAc(b1-3)Gal(b1-3)GlcNAc
# Procedure, shortened: as §1
# [13] = target: Neu5Ac(a2-6)Gal(b1-4)GlcNAc(b1-3)Gal(b1-4)GlcNAc
# Procedure, shortened: as §1
# [14] = target: Neu5Ac(a2-6)Gal(b1-4)GlcNAc(b1-3)Gal(b1-4)GlcNAc(b1-2)Man(a1-3)[Neu5Ac(a2-6)Gal(b1-4)GlcNAc(b1-3)Gal(b1-4)GlcNAc(b1-2)Man(a1-6)]GalNAc
# Procedure, shortened: as §1
# [15] = target: Neu5Ac(a2-6)Gal(b1-4)GlcNAc(b1-3)Gal(b1-4)GlcNAc(b1-3)Gal(b1-4)GlcNAc
# Procedure, shortened: as §1
# [16] = target: Neu5Ac(a2-6)Gal(b1-4)GlcNAc(b1-3)Gal(b1-4)GlcNAc(b1-3)Gal(b1-4)GlcNAc(b1-2)Man(a1-3)[Neu5Ac(a2-6)Gal(b1-4)GlcNAc(b1-3)Gal(b1-4)GlcNAc(b1-3)Gal(b1-4)GlcNAc(b1-2)Man(a1-6)]GalNAc
# Procedure, shortened: as §1
# [17] = target: Neu5Ac(a2-6)Gal(b1-4)GlcNAc(b1-3)Gal(b1-4)GlcNAc(b1-3)GalNAc
# Procedure, shortened: as §1
# [18] = target: Neu5Ac(a2-6)Gal(b1-4)GlcNAc(b1-3)Gal(b1-4)GlcNAc(b1-3)[Neu5Ac(a2-6)Gal(b1-4)GlcNAc(b1-3)Gal(b1-4)GlcNAc(b1-6)]GalNAc
# Procedure, shortened: as §1
# [19] = target: Neu5Ac(a2-6)Gal(b1-4)GlcNAc(b1-3)Gal(b1-4)GlcNAc(b1-6)[Gal(b1-3)]GalNAc
# Procedure, shortened: as §1
# [20] = target: Neu5Ac(a2-6)Gal(b1-4)GlcNAc(b1-3)Gal(b1-4)[Fuc(a1-3)]GlcNAc(b1-3)Gal(b1-4)[Fuc(a1-3)]GlcNAc
# Procedure, shortened: as §1
# [21] = target: Neu5Ac(a2-6)Gal(b1-4)GlcNAc(b1-3)GalNAc
# Procedure, shortened: as §1
# [22] = target: Neu5Ac(a2-6)Gal(b1-4)GlcNAc(b1-3)[Neu5Ac(a2-6)Gal(b1-4)GlcNAc(b1-6)]GalNAc
# Procedure, shortened: as §1
# [23] = target: Neu5Ac(a2-6)Gal(b1-4)GlcNAc(b1-6)GalNAc
# Procedure, shortened: as §1
# [24] = target: Neu5Ac(a2-6)Gal(b1-4)GlcNAc(b1-6)[Gal(b1-3)GlcNAc(b1-3)]Gal(b1-4)Glc
# Procedure, shortened: as §1
# [25] = target: Neu5Ac(a2-6)Gal(b1-4)GlcNAc(b1-6)[Gal(b1-3)]GalNAc
# Procedure, shortened: as §1
# [26] = target: Neu5Ac(a2-6)Gal(b1-4)GlcNAc6S
# Procedure, shortened: as §1
# Neu5Ac(a2-6)GalNAc = target: Neu5Ac(a2-6)GalNAc
# Procedure, shortened: as §1
# [27] = target: Neu5Ac(a2-6)GalNAc(b1-4)GlcNAc
# Procedure, shortened: as §1
# [28] = target: Neu5Ac(a2-6)GalNAc(b1-4)GlcNAc6S
# Procedure, shortened: as §1
# [29] = target: Neu5Ac(a2-6)GlcNAc(b1-4)GlcNAc
# Procedure, shortened: as §1
# [30] = target: Neu5Ac(a2-6)GlcNAc(b1-4)GlcNAc(b1-4)GlcNAc
# Procedure, shortened: as §1
binder,measurement,setting,value
B1,glycan array binding signal (z-score),[1],0.592
same,glycan array binding signal (z-score),[2],0.724
same,glycan array binding signal (z-score),[3],-0.153
same,glycan array binding signal (z-score),[4],0.201
same,glycan array binding signal (z-score),[5],3.88
same,glycan array binding signal (z-score),[6],3.49
same,glycan array binding signal (z-score),[7],-0.719
same,glycan array binding signal (z-score),[8],0.785
same,glycan array binding signal (z-score),[9],0.039
same,glycan array binding signal (z-score),[10],0.006
same,glycan array binding signal (z-score),[11],0.93
same,glycan array binding signal (z-score),[12],-0.025
same,glycan array binding signal (z-score),[13],-0.616
same,glycan array binding signal (z-score),[14],0.299
same,glycan array binding signal (z-score),[15],-0.415
same,glycan array binding signal (z-score),[16],0.55
same,glycan array binding signal (z-score),[17],-0.448
same,glycan array binding signal (z-score),[18],0.811
same,glycan array binding signal (z-score),[19],0.538
same,glycan array binding signal (z-score),[20],1.81
same,glycan array binding signal (z-score),[21],-0.594
same,glycan array binding signal (z-score),[22],1.12
same,glycan array binding signal (z-score),[23],-0.743
same,glycan array binding signal (z-score),[24],-0.38
same,glycan array binding signal (z-score),[25],-0.639
same,glycan array binding signal (z-score),[26],-0.827
same,glycan array binding signal (z-score),Neu5Ac(a2-6)GalNAc,-0.868
same,glycan array binding signal (z-score),[27],-0.875
same,glycan array binding signal (z-score),[28],-0.466
same,glycan array binding signal (z-score),[29],-0.714
same,glycan array binding signal (z-score),[30],-0.801

# 2 consecutive entries out of the list so far, for reference:
binder,measurement,setting,value
B1,glycan array binding signal (z-score),[20],1.81
same,glycan array binding signal (z-score),[21],-0.594
